From patent publication US20030207391A1 (published 2003)
Results are given in words; binding and its absence hold for the method and conditions named. Some results given as binding are weak or reduced against the parent protein; the word gives no strength. Sequences can lack the tags named with a protein.

B1: FLT-1 Domain 4 Construct 1 (residues 330-429), His-tagged (receptor)
chain: DKAFITVKHRKQQVLETVAGKRSYRLSMKVKAFPSPEVVWLKDGLPATEKSARYLTRGYSLIIKDVTEEDAGNYTILLSIKQSNVFKNLTATLIVNVKPQ
notes: not shown: histidine tag from the E. coli expression vector
B2: FLT-1 Domain 4 Construct 2 (residues 330-440), His-tagged (receptor)
chain: DKAFITVKHRKQQVLETVAGKRSYRLSMKVKAFPSPEVVWLKDGLPATEKSARYLTRGYSLIIKDVTEEDAGNYTILLSIKQSNVFKNLTATLIVNVKPQIYEKAVSSFPD
notes: as for B1
B3: FLT-1 Domain 4 Construct 3 (residues 338-429), His-tagged (receptor, not shown: small tags and cut ends)
chain: HRKQQVLETVAGKRSYRLSMKVKAFPSPEVVWLKDGLPATEKSARYLTRGYSLIIKDVTEEDAGNYTILLSIKQSNVFKNLTATLIVNVKPQ

What follows are binders tested against T1, soluble FLT-1 (sFLT-1) (Homo sapiens, UniProt P17948-2 27-687, limits assumed) (assay: BIAcore; inhibition of sFLT-1 binding to immobilised 2B2 after pre-incubation).
T1 construct: the whole FLT-1 entry is named

binding, binds:
B1
B2
B3
